Reference: the supplement of paper PMC10849652
The other results are listed elsewhere or left out.

Sequences of proteins named here, by UniProt entry; tags and fusion partners are left off. A change or cut given only in a name is not applied to a line headed by its entry.
UniProt Q14651: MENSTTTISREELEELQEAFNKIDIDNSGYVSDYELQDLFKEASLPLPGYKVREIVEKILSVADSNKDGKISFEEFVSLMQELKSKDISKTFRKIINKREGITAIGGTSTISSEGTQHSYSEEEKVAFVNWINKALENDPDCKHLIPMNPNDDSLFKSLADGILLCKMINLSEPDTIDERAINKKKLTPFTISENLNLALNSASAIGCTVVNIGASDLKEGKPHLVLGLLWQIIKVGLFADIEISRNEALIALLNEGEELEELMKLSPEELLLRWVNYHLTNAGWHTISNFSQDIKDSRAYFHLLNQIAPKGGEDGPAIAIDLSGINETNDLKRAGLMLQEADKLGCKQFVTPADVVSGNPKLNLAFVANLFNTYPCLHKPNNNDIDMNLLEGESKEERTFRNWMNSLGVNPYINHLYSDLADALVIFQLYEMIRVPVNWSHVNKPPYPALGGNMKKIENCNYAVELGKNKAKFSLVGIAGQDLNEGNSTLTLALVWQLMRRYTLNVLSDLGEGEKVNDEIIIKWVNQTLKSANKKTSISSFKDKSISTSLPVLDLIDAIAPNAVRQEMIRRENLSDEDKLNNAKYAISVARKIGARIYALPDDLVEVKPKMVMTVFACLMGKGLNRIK
UniProt Q6UW63: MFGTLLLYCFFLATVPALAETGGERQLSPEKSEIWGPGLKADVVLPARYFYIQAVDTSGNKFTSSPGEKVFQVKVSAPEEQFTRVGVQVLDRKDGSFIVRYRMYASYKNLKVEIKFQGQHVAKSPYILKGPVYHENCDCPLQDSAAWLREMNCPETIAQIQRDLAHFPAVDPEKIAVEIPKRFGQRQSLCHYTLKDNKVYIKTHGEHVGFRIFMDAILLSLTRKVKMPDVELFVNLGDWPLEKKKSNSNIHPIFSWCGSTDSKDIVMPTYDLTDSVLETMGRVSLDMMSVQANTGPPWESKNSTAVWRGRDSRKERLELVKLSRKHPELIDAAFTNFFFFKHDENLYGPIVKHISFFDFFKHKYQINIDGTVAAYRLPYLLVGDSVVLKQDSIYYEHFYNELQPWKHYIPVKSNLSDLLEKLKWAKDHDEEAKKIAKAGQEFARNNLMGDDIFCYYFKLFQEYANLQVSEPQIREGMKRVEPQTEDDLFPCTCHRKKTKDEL
UniProt Q02809: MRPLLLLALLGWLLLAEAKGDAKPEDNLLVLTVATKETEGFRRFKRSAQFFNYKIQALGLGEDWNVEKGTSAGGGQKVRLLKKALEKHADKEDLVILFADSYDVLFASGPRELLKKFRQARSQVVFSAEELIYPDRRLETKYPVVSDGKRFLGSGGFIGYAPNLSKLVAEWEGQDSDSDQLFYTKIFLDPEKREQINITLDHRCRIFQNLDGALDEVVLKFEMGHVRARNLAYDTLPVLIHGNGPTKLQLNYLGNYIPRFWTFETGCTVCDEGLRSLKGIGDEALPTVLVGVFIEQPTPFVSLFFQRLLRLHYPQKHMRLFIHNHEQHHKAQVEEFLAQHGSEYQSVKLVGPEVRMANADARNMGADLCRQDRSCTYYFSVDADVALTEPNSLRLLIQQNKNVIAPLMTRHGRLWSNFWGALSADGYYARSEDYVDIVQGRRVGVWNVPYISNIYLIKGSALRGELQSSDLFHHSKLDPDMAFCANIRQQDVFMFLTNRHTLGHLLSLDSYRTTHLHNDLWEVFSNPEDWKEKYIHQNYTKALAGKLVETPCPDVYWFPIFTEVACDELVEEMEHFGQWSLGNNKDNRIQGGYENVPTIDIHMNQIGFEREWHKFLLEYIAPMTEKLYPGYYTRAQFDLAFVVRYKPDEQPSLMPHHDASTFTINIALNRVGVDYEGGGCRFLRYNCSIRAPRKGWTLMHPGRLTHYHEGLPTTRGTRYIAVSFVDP
UniProt O14802: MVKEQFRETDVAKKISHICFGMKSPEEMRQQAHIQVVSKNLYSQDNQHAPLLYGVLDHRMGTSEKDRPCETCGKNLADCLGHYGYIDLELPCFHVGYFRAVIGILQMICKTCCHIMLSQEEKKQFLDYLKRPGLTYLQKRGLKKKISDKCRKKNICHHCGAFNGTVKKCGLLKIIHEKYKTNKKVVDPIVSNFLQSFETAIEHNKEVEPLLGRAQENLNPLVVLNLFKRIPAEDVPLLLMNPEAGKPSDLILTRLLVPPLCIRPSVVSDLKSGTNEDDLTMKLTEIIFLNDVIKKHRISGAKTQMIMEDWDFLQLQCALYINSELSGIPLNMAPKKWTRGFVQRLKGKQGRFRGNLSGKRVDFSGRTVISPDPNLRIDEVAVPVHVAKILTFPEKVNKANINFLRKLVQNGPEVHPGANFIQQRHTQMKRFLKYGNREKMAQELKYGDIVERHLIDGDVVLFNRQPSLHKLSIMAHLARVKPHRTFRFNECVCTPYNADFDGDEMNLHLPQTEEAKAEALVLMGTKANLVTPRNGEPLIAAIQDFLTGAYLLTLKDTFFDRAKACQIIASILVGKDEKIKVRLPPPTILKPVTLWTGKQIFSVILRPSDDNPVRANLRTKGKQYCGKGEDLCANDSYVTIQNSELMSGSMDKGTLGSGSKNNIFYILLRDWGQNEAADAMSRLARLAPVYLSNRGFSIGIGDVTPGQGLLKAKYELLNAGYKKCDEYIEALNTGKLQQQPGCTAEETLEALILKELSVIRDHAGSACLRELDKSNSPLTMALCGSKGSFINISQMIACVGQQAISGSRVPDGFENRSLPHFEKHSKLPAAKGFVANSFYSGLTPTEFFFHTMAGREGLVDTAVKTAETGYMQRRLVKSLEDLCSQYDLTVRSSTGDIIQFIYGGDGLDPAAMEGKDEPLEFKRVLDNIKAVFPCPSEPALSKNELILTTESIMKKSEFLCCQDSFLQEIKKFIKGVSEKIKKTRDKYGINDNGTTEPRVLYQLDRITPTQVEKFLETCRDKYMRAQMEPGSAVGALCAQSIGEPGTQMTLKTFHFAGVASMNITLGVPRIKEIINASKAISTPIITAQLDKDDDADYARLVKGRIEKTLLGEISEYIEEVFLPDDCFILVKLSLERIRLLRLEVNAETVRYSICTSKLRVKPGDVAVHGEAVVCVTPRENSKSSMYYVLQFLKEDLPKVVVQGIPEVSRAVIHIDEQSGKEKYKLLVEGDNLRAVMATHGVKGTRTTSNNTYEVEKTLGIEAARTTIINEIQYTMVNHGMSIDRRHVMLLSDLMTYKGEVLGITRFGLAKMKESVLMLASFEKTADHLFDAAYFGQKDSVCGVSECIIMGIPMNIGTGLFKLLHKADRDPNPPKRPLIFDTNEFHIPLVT
UniProt O75145: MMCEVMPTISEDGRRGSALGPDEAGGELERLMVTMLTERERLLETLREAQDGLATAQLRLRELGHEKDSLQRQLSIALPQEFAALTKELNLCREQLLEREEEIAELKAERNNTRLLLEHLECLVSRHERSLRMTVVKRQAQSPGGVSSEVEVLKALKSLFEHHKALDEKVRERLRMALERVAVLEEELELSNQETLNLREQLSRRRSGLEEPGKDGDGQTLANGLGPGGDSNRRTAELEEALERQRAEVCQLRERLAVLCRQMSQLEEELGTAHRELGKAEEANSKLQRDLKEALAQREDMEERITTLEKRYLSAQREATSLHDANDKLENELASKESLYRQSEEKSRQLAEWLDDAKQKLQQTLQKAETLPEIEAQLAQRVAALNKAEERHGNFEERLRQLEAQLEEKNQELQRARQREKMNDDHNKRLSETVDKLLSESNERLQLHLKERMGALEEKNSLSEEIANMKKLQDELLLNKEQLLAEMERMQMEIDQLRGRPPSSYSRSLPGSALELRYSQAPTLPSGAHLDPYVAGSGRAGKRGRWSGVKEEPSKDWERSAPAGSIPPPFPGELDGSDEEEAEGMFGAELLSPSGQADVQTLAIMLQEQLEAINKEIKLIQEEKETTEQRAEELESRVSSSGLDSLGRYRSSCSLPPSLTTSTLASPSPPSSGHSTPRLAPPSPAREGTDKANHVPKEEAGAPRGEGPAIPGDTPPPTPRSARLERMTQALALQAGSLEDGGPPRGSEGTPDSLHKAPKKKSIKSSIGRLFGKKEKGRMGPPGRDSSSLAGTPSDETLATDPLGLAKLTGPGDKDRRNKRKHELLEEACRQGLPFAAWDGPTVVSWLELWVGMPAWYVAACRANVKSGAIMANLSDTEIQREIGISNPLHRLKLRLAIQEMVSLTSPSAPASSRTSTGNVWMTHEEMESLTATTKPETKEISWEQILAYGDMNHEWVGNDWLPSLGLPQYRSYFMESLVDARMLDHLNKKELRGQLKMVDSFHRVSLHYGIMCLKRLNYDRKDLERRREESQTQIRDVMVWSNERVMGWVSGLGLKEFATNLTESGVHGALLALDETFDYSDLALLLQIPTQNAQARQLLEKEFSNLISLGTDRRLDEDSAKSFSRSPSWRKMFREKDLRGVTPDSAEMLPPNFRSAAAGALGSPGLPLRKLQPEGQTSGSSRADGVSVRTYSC
UniProt Q04941: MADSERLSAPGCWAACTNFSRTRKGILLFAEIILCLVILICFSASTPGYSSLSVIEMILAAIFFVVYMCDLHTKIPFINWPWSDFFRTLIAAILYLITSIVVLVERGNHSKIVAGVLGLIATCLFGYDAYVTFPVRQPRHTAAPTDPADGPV
UniProt Q9NVU0: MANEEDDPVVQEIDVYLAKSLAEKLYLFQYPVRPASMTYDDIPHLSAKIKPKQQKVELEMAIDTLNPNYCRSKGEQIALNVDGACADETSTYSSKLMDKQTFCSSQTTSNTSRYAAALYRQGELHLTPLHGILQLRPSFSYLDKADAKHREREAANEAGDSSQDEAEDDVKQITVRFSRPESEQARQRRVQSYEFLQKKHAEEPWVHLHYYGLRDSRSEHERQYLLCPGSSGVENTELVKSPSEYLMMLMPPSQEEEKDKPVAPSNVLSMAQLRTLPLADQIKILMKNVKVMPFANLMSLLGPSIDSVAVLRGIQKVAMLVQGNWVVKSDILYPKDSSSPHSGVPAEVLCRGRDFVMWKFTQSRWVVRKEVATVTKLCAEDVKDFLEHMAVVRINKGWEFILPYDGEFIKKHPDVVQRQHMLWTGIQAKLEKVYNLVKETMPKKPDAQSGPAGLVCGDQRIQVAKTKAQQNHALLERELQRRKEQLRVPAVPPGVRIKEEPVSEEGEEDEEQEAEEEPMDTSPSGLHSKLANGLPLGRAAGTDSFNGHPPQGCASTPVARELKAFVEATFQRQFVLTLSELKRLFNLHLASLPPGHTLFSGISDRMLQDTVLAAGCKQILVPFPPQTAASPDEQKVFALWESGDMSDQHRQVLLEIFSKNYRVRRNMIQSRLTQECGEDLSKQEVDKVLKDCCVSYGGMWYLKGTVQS
UniProt Q9NRY6: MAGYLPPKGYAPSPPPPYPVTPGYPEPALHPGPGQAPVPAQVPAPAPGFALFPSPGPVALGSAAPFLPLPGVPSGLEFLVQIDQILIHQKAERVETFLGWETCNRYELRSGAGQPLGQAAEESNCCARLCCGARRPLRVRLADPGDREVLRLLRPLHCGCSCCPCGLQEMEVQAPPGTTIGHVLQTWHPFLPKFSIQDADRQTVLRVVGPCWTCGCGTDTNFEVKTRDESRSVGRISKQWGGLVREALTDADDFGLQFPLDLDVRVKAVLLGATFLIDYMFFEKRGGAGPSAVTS

Key:
Test in all cases: log2 fold change, soluble protein after heating vs DMSO (PISA); higher = thermal stabilisation; K562 lysate, 10 uM; active = over 0.2 and 3.5 SD of the protein, either way, in both replicates (recomputed)
vemurafenib = compound: CCCS(=O)(=O)Nc1ccc(F)c(C(=O)c2c[nH]c3ncc(-c4ccc(Cl)cc4)cc23)c1F [vemurafenib]
Summary of the method: (§1)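 Values give the log-two fold change in thermal stability against solvent controls, from duplicates. Crude K562 extract at 1 mg/mL protein, made by dounce homogenisation in PBS pH 7.4 with 1 mM MgCl2, was treated with 10 μM compound for 30 min. After 3 min heating across 48°C-58°C, aliquots were pooled, adjusted to 0.5% NP-40 at 4°C and centrifuged at 21,000xg for 90 min. The supernatant was measured by TMTpro 16plex LC-MS/MS with channel sums equalised.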

[1] = compound: CCCS(=O)(=O)Nc1ccc(F)c(C(=O)c2c[nH]c3ncc(Cl)cc23)c1F
Summary of the method: as §1

barasertib = compound: CCN(CCCOc1ccc2c(Nc3cc(CC(=O)Nc4cccc(F)c4)[nH]n3)ncnc2c1)CCOP(=O)(O)O [barasertib]
Summary of the method: as §1

[2] = compound: CC[C@@H]1C(=O)N(C)c2cnc(Nc3ccc(C(=O)NC4CCN(C)CC4)cc3OC)nc2N1C1CCCC1
Summary of the method: as §1

volasertib = compound: CC[C@@H]1C(=O)N(C)c2cnc(Nc3ccc(C(=O)N[C@H]4CC[C@H](N5CCN(CC6CC6)CC5)CC4)cc3OC)nc2N1C(C)C [volasertib]
Summary of the method: as §1

[3] = compound: CCn1c(C(=O)N(C2CC2)C2CC2)cc2c3c(ncn3C)c(Nc3cc(C)n(C)n3)nc21
Summary of the method: as §1

[4] = compound: CCn1cc(-c2ccnc3[nH]c(-c4cccc(CN(C)C)c4)cc23)c(-c2ccc(NC(=O)N(C)C)cc2)n1
Summary of the method: as §1

[5] = compound: CN1CCC(CNc2ccc3ncc(-c4cccc(OC(F)(F)F)c4)n3n2)CC1
Summary of the method: as §1

saracatinib = compound: CN1CCN(CCOc2cc(OC3CCOCC3)c3c(Nc4c(Cl)ccc5c4OCO5)ncnc3c2)CC1 [saracatinib]
Summary of the method: as §1

sotrastaurin = compound: CN1CCN(c2nc(C3=C(c4c[nH]c5ccccc45)C(=O)NC3=O)c3ccccc3n2)CC1 [sotrastaurin]
Summary of the method: as §1

alvocidib = compound: CN1CC[C@H](c2c(O)cc(O)c3c(=O)cc(-c4ccccc4Cl)oc23)[C@H](O)C1 [alvocidib]
Summary of the method: as §1

Tubastatin A = compound: CN1CCc2c(c3ccccc3n2Cc2ccc(C(=O)NO)cc2)C1 [Tubastatin A]
Summary of the method: as §1

[6] = compound: CNC(=O)C1=CC=CC=C1NC2=NC(=NC=C2Cl)NC3=C(C=C(C=C3)N4CCOCC4)OC
Summary of the method: as §1

defactinib = compound: CNC(=O)c1ccc(Nc2ncc(C(F)(F)F)c(NCc3nccnc3N(C)S(C)(=O)=O)n2)cc1 [defactinib]
Summary of the method: as §1

[7] = compound: CNc1nc(-c2ccc3c(N)n[nH]c3c2)cc(N2C[C@@H](C(=O)NC3CCCCC3)CC[C@H]2C)n1
Summary of the method: as §1

encorafenib = compound: COC(=O)N[C@@H](C)CNc1nccc(-c2cn(C(C)C)nc2-c2cc(Cl)cc(NS(C)(=O)=O)c2F)n1 [encorafenib]
Summary of the method: as §1

[8] = compound: COC(=O)[C@H](CCSC)NC(=O)C1=C(C=C(C=C1)NC[C@H](CS)N)C2=CC=CC=C2
Summary of the method: as §1

alisertib = compound: COc1cc(Nc2ncc3c(n2)-c2ccc(Cl)cc2C(c2c(F)cccc2OC)=NC3)ccc1C(=O)O [alisertib]
Summary of the method: as §1

[9] = compound: COc1cc2nc(-c3cc(F)ccc3O)nc(N[C@@H]3CNC[C@H]3C(C)(C)O)c2cc1OC
Summary of the method: as §1

gefitinib = compound: COc1cc2ncnc(Nc3ccc(F)c(Cl)c3)c2cc1OCCCN1CCOCC1 [gefitinib]
Summary of the method: as §1

Measured: log2 fold change

POLR2L (UniProt P62875)
inactive: vemurafenib -0.046 | [1] -0.008 | barasertib 0.208 | [2] -0.132 | volasertib -0.001 | [3] 0.01 | [4] 0.022 | [5] -0.097 | saracatinib -0.058 | sotrastaurin -0.05 | alvocidib 0.014 | Tubastatin A -0.024 | [6] 0.065 | defactinib 0.065 | [7] 0.001 | encorafenib -0.179 | [8] 0.152 | alisertib -0.003 | [9] 0.004 | gefitinib -0.1

PLS1 (UniProt Q14651)
inactive: vemurafenib -0.015 | [1] 0.011 | barasertib -0.036 | [2] 0.036 | volasertib 0.002 | [3] -0.001 | [4] 0.023 | [5] -0.014 | saracatinib 0.015 | sotrastaurin -0.022 | alvocidib 0.015 | Tubastatin A 0.049 | [6] 0.045 | defactinib -0.004 | [7] -0.001 | encorafenib -0.007 | [8] -0.022 | alisertib -0.018 | [9] -0.007 | gefitinib 0.016

POGLUT2 (UniProt Q6UW63)
inactive: vemurafenib 0.074 | [1] 0.007 | barasertib 0.043 | [2] -0.067 | volasertib 0.011 | [3] -0.05 | [4] -0.068 | [5] 0.046 | saracatinib 0.009 | sotrastaurin 0.012 | alvocidib -0.026 | Tubastatin A 0.006 | [6] 0.031 | defactinib -0.018 | [7] 0.006 | encorafenib 0.04 | [8] 0.016 | alisertib -0.006 | [9] 0.022 | gefitinib 0.06

PLOD1 (UniProt Q02809)
inactive: vemurafenib 0.008 | [1] 0.012 | barasertib 0.027 | [2] 0.014 | volasertib -0.002 | [3] 0.007 | [4] -0.045 | [5] 0.027 | saracatinib 0.016 | sotrastaurin 0.03 | alvocidib -0.008 | Tubastatin A 0.003 | [6] 0.013 | defactinib 0.005 | [7] -0.055 | encorafenib 0.037 | [8] -0.021 | alisertib 0.007 | [9] 0.025 | gefitinib 0.009

PLXNB2 (UniProt O15031)
inactive: vemurafenib 0.011 | [1] -0.007 | barasertib 0.008 | [2] 0.051 | volasertib -0.021 | [3] -0.003 | [4] -0.043 | [5] -0.019 | saracatinib 0.005 | sotrastaurin 0.024 | alvocidib 0 | Tubastatin A 0.015 | [6] 0.009 | defactinib 0.002 | [7] 0.027 | encorafenib 0.004 | [8] -0.107 | alisertib 0.017 | [9] 0.054 | gefitinib 0.016

POLR3A (UniProt O14802)
inactive: vemurafenib -0.004 | [1] 0.008 | barasertib 0.017 | [2] -0.031 | volasertib -0.012 | [3] 0.005 | [4] -0.108 | [5] 0.082 | saracatinib 0.014 | sotrastaurin -0.014 | alvocidib -0.049 | Tubastatin A -0.037 | [6] 0.012 | defactinib -0.01 | [7] -0.011 | encorafenib 0.023 | [8] 0.036 | alisertib -0.02 | [9] -0.008 | gefitinib -0.029

PPFIA3 (UniProt O75145)
inactive: vemurafenib -0.032 | [1] -0.043 | barasertib 0.042 | volasertib -0.023 | [3] -0.013 | [4] -0.122 | [5] -0.086 | saracatinib -0.022 | alvocidib 0.011 | Tubastatin A -0.005 | [6] -0.001 | defactinib 0.109 | [7] 0.156 | alisertib -0.03 | [9] 0.041 | gefitinib 0.056

PLEKHM2 (UniProt Q8IWE5)
inactive: vemurafenib 0.023 | [1] 0.013 | barasertib -0.04 | [2] 0.04 | volasertib -0.017 | [3] -0.022 | [4] 0.044 | [5] -0.049 | saracatinib 0.032 | sotrastaurin 0.046 | alvocidib 0.012 | Tubastatin A 0.083 | [6] 0 | defactinib -0.007 | [7] 0.1 | encorafenib 0.026 | [8] 0.059 | alisertib -0.011 | [9] 0.132 | gefitinib 0.04

Retrieved one by one from the entries so far (2):
PLXNB2 (UniProt O15031)
inactive: vemurafenib 0.011 | [1] -0.007 | barasertib 0.008 | [2] 0.051 | volasertib -0.021 | [3] -0.003 | [4] -0.043 | [5] -0.019 | saracatinib 0.005 | sotrastaurin 0.024 | alvocidib 0 | Tubastatin A 0.015 | [6] 0.009 | defactinib 0.002 | [7] 0.027 | encorafenib 0.004 | [8] -0.107 | alisertib 0.017 | [9] 0.054 | gefitinib 0.016

POGLUT2 (UniProt Q6UW63)
inactive: vemurafenib 0.074 | [1] 0.007 | barasertib 0.043 | [2] -0.067 | volasertib 0.011 | [3] -0.05 | [4] -0.068 | [5] 0.046 | saracatinib 0.009 | sotrastaurin 0.012 | alvocidib -0.026 | Tubastatin A 0.006 | [6] 0.031 | defactinib -0.018 | [7] 0.006 | encorafenib 0.04 | [8] 0.016 | alisertib -0.006 | [9] 0.022 | gefitinib 0.06

The list goes on.

PLP2 (UniProt Q04941)
inactive: vemurafenib -0.062 | [1] 0.047 | barasertib -0.068 | [2] 0.025 | volasertib -0.083 | [4] 0.054 | [5] -0.043 | saracatinib -0.088 | sotrastaurin 0.059 | alvocidib -0.033 | [6] -0.181 | defactinib 0.008 | [7] -0.355 | encorafenib -0.01 | [8] -0.004 | alisertib -0.105 | [9] -0.006 | gefitinib -0.174

POLR3E (UniProt Q9NVU0)
inactive: vemurafenib 0.011 | [1] 0.02 | barasertib 0.003 | [2] 0.018 | volasertib -0.004 | [3] -0.012 | [4] 0.035 | [5] 0.012 | saracatinib 0.017 | sotrastaurin 0.048 | alvocidib 0.011 | Tubastatin A -0.08 | [6] 0.009 | defactinib 0.02 | [7] 0.009 | encorafenib 0.004 | [8] 0.104 | alisertib 0.024 | [9] -0.003 | gefitinib 0.009

PLSCR3 (UniProt Q9NRY6)
inactive: vemurafenib 0 | [1] -0.058 | [2] 0.052 | volasertib -0.012 | [4] 0.053 | [5] -0.003 | saracatinib -0.046 | sotrastaurin -0.004 | alvocidib -0.043 | defactinib 0.037 | [7] 0.059 | encorafenib -0.098 | [8] -0.27 | [9] -0.033
